The values that follow come from the supplement of paper PMC10849652.

Chains of the proteins cited; added tags and fusions are not shown. Lines headed by an entry give the natural chain unless they say otherwise; changes in a name come on top.
UniProt Q9NQZ2: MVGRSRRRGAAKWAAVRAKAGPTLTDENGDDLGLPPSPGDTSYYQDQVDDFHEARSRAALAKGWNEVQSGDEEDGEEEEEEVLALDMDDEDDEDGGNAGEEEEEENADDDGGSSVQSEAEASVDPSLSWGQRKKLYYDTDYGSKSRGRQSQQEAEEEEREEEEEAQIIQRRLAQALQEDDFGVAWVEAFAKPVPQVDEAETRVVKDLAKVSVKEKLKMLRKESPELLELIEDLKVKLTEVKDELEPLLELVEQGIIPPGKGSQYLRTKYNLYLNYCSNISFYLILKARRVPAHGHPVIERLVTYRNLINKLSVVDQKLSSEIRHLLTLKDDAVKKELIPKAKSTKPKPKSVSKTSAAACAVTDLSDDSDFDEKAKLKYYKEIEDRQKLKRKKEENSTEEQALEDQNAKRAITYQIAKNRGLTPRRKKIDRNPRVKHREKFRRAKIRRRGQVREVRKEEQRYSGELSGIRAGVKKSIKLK
UniProt Q15386: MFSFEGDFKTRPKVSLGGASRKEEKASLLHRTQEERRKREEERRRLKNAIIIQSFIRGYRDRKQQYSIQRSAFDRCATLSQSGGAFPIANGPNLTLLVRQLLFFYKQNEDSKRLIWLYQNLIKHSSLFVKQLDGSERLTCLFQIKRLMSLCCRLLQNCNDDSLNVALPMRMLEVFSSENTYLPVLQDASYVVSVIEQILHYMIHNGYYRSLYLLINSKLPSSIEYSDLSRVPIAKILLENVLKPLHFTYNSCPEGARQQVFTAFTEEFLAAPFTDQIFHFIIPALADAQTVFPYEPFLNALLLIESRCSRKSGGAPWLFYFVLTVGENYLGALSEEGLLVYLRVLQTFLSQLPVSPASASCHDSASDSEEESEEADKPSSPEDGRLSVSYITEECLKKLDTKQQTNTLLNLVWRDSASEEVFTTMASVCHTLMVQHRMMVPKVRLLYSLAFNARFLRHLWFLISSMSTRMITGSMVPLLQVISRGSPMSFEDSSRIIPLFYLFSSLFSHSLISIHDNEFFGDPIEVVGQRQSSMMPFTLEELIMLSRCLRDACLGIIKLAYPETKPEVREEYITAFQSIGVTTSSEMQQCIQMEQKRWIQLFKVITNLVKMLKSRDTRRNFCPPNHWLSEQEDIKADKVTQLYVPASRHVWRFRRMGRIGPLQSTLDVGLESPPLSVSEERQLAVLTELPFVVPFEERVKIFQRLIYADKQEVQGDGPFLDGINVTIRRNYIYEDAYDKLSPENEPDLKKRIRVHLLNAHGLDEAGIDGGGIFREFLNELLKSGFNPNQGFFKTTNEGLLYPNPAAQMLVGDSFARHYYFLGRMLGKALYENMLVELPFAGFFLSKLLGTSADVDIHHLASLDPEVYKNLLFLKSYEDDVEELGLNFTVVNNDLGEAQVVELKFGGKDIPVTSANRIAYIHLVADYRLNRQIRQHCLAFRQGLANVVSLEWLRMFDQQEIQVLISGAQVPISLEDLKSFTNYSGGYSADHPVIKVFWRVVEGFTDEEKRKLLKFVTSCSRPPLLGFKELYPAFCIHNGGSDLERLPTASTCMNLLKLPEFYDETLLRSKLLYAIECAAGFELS
UniProt O75379: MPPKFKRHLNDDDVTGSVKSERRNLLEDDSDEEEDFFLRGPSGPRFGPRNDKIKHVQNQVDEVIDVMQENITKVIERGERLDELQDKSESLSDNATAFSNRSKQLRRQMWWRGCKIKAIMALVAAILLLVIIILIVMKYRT
UniProt Q9P0L0: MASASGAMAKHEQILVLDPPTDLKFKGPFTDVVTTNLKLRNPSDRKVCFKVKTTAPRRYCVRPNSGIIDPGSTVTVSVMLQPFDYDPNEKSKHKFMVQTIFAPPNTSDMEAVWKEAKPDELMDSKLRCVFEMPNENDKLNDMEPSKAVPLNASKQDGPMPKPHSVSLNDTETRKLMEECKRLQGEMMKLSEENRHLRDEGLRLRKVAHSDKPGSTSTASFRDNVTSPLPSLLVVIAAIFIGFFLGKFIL
UniProt P26640: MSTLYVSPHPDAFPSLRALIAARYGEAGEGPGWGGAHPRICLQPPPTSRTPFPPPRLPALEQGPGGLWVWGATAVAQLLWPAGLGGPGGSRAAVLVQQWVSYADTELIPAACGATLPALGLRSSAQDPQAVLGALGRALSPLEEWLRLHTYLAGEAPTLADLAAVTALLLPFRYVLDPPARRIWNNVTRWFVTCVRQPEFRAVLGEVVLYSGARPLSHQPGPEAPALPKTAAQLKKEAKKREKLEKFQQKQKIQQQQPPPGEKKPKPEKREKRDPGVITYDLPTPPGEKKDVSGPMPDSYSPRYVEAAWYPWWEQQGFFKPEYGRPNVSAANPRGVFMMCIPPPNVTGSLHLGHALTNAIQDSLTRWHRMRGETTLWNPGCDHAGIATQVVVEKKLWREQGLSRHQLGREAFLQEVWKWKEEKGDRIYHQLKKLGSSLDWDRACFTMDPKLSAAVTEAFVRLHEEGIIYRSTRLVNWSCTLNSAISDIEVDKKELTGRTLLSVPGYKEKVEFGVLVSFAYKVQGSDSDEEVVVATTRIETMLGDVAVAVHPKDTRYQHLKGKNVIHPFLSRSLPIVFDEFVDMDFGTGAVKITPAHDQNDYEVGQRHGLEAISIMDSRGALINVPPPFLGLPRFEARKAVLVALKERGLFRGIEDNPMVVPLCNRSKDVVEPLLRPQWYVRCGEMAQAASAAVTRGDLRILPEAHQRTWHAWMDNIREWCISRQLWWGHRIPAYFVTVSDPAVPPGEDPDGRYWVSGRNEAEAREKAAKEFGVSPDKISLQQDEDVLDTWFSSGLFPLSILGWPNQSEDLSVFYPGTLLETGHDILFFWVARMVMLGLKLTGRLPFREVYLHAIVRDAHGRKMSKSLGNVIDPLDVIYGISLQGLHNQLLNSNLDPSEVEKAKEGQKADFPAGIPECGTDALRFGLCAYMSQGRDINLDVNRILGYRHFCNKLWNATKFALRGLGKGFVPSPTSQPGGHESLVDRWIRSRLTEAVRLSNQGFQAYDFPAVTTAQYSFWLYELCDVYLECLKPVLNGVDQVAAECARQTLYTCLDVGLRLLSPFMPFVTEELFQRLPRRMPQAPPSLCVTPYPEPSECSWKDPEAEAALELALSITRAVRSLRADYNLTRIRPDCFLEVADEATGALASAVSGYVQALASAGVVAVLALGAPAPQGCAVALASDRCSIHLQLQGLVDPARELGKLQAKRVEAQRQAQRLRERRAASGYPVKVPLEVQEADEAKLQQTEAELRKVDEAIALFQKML
UniProt Q9NWZ5: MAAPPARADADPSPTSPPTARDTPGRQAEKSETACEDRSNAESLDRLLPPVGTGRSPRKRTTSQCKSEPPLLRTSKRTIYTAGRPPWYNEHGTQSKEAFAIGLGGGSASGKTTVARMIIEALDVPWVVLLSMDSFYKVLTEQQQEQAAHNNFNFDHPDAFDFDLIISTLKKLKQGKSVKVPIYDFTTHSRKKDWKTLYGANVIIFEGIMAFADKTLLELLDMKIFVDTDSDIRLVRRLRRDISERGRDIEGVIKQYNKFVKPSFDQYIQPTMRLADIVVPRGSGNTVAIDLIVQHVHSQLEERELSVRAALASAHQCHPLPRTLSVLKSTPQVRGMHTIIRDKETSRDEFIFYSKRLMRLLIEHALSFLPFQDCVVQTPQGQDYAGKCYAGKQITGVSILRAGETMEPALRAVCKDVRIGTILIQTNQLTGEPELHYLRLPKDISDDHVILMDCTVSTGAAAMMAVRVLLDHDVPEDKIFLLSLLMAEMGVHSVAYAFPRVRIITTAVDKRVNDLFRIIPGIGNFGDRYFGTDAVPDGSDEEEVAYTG
UniProt Q8N806: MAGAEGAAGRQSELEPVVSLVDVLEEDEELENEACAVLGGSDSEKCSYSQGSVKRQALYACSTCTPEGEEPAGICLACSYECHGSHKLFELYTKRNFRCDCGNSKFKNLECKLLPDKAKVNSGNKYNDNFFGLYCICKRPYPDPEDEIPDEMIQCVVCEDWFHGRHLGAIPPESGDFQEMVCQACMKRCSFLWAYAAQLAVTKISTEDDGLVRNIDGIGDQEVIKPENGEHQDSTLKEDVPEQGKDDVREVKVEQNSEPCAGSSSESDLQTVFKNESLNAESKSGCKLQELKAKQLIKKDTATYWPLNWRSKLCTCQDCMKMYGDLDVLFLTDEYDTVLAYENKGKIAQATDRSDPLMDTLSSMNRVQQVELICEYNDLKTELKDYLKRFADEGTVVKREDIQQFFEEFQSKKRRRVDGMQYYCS
UniProt P07919: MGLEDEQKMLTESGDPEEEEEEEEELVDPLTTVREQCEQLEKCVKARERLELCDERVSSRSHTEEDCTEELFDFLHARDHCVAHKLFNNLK
UniProt P10746: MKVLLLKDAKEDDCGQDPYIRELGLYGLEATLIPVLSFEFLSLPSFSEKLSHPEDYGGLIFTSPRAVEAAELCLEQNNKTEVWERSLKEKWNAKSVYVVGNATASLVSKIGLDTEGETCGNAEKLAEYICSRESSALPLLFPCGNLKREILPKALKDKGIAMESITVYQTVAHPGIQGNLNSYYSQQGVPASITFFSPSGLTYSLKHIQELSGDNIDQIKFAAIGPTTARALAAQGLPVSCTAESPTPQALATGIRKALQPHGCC
UniProt P15374: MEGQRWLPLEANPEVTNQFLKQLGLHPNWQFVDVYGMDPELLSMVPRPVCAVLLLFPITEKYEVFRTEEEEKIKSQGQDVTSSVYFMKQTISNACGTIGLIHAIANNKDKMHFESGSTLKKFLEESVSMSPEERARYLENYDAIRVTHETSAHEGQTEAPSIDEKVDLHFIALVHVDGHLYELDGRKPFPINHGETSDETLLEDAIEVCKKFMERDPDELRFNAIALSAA
UniProt Q92890: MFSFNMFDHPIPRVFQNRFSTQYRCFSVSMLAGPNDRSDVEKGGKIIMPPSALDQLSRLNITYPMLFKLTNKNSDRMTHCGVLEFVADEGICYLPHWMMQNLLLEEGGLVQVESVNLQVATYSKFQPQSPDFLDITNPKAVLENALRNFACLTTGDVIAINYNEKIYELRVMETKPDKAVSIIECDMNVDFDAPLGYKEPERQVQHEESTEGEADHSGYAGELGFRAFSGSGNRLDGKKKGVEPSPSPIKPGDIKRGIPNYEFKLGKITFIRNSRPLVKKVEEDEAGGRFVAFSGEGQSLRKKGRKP
UniProt P22695: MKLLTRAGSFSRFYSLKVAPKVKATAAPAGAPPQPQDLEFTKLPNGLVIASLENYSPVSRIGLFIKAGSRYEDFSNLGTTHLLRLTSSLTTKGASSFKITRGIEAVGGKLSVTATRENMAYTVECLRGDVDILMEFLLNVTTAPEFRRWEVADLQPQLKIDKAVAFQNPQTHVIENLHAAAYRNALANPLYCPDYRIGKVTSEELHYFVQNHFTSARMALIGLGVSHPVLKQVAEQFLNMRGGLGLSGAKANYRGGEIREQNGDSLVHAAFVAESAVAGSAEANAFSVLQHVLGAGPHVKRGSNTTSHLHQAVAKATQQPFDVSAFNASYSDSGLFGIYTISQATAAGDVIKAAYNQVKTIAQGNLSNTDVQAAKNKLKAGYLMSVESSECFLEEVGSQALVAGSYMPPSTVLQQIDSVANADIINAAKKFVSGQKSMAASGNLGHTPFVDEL
UniProt Q9Y4E8: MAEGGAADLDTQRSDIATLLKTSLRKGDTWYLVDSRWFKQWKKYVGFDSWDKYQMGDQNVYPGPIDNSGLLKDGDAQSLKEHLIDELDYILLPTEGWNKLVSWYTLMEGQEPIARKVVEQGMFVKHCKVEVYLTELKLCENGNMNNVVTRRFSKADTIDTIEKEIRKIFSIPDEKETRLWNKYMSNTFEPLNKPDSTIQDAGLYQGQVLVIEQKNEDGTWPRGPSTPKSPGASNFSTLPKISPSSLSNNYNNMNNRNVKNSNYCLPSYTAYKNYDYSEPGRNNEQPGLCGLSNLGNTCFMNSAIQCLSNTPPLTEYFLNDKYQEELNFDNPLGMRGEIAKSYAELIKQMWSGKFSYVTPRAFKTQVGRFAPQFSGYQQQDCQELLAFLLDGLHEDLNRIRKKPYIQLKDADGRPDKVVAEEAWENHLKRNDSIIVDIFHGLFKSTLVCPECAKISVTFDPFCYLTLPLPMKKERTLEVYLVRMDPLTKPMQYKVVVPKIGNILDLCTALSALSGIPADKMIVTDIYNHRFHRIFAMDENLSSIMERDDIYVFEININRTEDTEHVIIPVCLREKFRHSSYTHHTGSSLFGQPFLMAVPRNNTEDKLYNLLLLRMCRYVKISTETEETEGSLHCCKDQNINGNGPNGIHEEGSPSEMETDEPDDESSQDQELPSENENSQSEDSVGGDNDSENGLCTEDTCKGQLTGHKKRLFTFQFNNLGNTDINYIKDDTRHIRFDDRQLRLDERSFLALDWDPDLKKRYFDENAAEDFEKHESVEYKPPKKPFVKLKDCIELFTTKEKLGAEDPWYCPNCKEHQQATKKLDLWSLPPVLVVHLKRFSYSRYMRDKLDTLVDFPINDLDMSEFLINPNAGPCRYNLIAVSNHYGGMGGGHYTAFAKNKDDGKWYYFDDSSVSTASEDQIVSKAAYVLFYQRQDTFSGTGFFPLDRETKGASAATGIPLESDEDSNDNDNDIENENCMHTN

The list shows a part of the results.

Compound in this assay: O=C(CCCCCCC(=O)Nc1ccccc1)NO [vorinostat]
Put plainly: log2 fold change, soluble protein after heating vs DMSO (PISA); higher = thermal stabilisation; K562 cells, 10 uM, 30 min; active = over 0.2 and 3.5 SD of the protein, either way, in both replicates (recomputed). An outline of the steps:
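Values are thermal stability changes relative to control samples and are taken from duplicates. They are stated as log2 fold changes. Before quantification by TMTpro 16plex LC-MS/MS with equalised channel sums, K562 cells at 2×10^6 cells/mL were treated with 10 μM compound for 30 min, heated in aliquots for 3 min across 48°C-58°C, pooled, extracted in PBS with 0.5% NP-40 at 4°C, and centrifuged at 21,000xg for 90 min to give the soluble supernatant.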
For USE1 (UniProt Q9NZ43), the log2 fold change is inactive: 0.028. The value for URI1 (UniProt O94763) was inactive: -0.025. The value for UMPS (UniProt P11172) was inactive: 0.018; that for UTP3 (UniProt Q9NQZ2) was inactive: -0.06. To UIMC1 (UniProt Q96RL1) belongs inactive: 0.03; to USP8 (UniProt P40818), inactive: 0.038. For UGGT2 (UniProt Q9NYU1), the log2 fold change is inactive: -0.019. To UBR4 isoform 2 (UniProt Q5T4S7) belongs inactive: 0.072; to UBE3C (UniProt Q15386), inactive: 0.023; to UQCRFS1 (UniProt P47985), inactive: -0.112. The value for UBQLN1 (UniProt Q9UMX0) was inactive: 0.008; that for UTP14A (UniProt Q9BVJ6) was inactive: 0.

As to UBXN7 (UniProt O94888), the log2 fold change is inactive: 0.046.

For the target VAMP4 (UniProt O75379), the log2 fold change was inactive: 0.007.

In the case of VAPA (UniProt Q9P0L0), the log2 fold change is inactive: -0.101.

VARS (UniProt P26640): the log2 fold change was inactive: 0.026. On to UCKL1 (UniProt Q9NWZ5), for which the log2 fold change is inactive: 0.013. The value for USP48 isoform 8 (UniProt Q86UV5) was inactive: 0.178. To VCL (UniProt P18206) belongs inactive: -0.008; to UGGT1 (UniProt Q9NYU2), inactive: -0.004. For the target UQCC2 (UniProt Q9BRT2), the log2 fold change was inactive: 0.019. Turning to UBR7 (UniProt Q8N806), the log2 fold change was inactive: 0.022. The value for USP5 (UniProt P45974) was inactive: -0.003; that for UQCRH (UniProt P07919) was inactive: -0.009. As to USP10 isoform 2 (UniProt Q14694), the log2 fold change is inactive: 0.035. In the case of UROS (UniProt P10746), the log2 fold change is inactive: 0.053.

With UCHL3 (UniProt P15374), the log2 fold change was inactive: 0.036. For the target UFD1 isoform 1 (UniProt Q92890), the log2 fold change is inactive: 0.003. As for VARS2, A0A0G2JL52, the log2 fold change was inactive: 0.106.

As for VAPA isoform 2 (UniProt Q9P0L0), the log2 fold change was inactive: -0.021. For the target UQCRC2 (UniProt P22695), the log2 fold change is inactive: 0. To USP15 (UniProt Q9Y4E8) belongs inactive: 0.044; to UBE4B isoform 4 (UniProt O95155), inactive: 0.023. The value for UGT8 (UniProt Q16880) was inactive: 0.047; that for UROD (UniProt P06132) was inactive: -0.021. As to UEVLD (UniProt Q8IX04), the log2 fold change is inactive: 0.142. The value for USP9X (UniProt Q93008) was inactive: 0.06; that for USP14 (UniProt P54578) was inactive: -0.03; that for VASP (UniProt P50552) was inactive: 0.039.
